These results are taken from paper PMC11312940.

Sequences of proteins named here, by UniProt entry; tags and fusion partners are left off.
UniProt Q9GZV5: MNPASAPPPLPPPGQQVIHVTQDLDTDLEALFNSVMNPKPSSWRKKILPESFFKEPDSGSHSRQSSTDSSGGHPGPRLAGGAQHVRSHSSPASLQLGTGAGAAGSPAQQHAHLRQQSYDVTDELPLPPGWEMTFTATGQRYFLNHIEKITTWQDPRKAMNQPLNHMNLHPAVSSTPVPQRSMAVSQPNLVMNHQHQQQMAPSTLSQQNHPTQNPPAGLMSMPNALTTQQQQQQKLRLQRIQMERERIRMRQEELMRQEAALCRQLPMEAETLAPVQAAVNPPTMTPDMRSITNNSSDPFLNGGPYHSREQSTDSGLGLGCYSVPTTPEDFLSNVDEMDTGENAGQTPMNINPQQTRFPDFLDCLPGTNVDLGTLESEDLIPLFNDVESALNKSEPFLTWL
UniProt P46937: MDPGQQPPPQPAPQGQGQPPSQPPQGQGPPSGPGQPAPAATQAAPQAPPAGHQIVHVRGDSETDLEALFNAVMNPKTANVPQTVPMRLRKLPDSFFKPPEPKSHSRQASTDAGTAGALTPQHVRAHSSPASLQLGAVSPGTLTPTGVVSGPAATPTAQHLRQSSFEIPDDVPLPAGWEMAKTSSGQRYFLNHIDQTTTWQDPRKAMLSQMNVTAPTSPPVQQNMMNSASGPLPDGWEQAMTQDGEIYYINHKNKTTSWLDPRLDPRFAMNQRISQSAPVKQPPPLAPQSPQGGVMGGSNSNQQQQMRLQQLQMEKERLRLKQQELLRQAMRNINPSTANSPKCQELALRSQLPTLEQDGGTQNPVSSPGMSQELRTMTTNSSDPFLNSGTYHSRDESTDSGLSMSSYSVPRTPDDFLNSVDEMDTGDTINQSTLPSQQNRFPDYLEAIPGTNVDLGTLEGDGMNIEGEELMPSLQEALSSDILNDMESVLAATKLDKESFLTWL

No constants are given. Whether binding was seen depends on the method and setting. Binding seen in cells or lysates may run through a third protein. These calls come from enrichment with a bait or labelling near it, and not all partners need be listed.

Assay in all cases: proximity labelling; BioID: BirA-Flag-YAP or -TAZ induced with doxycycline 24 h in stable HLF cells, 50 µM biotin 24 h; streptavidin magnetic beads; LC-MS/MS of four replicates; hits against the BirA-only control (fold change ≥ 2; false discovery rate ≤ 0.05)
For test [1], the target named is BirA-tagged TAZ (WW-domain containing transcription regulator 1, WWTR1), N-terminal fusion with the biotin ligase BirA and a Flag-tag (UniProt Q9GZV5).
Test [2] deals with BirA-tagged YAP (yes-associated protein), N-terminal fusion with the biotin ligase BirA and a Flag-tag (UniProt P46937).
Test [3] has as its target BirA-tagged TAZ (WW-domain containing transcription regulator 1, WWTR1), N-terminal fusion with the biotin ligase BirA and a Flag-tag, Q9GZV5. As to conditions: remark: other sources report otherwise.

B1: p130Cas (CRK-associated substrate)/BCAR1 (protein, UniProt P56945 1-870)
chain: MNHLNVLAKALYDNVAESPDELSFRKGDIMTVLEQDTQGLDGWWLCSLHGRQGIVPGNRLKILVGMYDKKPAGPGPGPPATPAQPQPGLHAPAPPASQYTPMLPNTYQPQPDSVYLVPTPSKAQQGLYQVPGPSPQFQSPPAKQTSTFSKQTPHHPFPSPATDLYQVPPGPGGPAQDIYQVPPSAGMGHDIYQVPPSMDTRSWEGTKPPAKVVVPTRVGQGYVYEAAQPEQDEYDIPRHLLAPGPQDIYDVPPVRGLLPSQYGQEVYDTPPMAVKGPNGRDPLLEVYDVPPSVEKGLPPSNHHAVYDVPPSVSKDVPDGPLLREETYDVPPAFAKAKPFDPARTPLVLAAPPPDSPPAEDVYDVPPPAPDLYDVPPGLRRPGPGTLYDVPRERVLPPEVADGGVVDSGVYAVPPPAEREAPAEGKRLSASSTGSTRSSQSASSLEVAGPGREPLELEVAVEALARLQQGVSATVAHLLDLAGSAGATGSWRSPSEPQEPLVQDLQAAVAAVQSAVHELLEFARSAVGNAAHTSDRALHAKLSRQLQKMEDVHQTLVAHGQALDAGRGGSGATLEDLDRLVACSRAVPEDAKQLASFLHGNASLLFRRTKATAPGPEGGGTLHPNPTDKTSSIQSRPLPSPPKFTSQDSPDGQYENSEGGWMEDYDYVHLQGKEEFEKTQKELLEKGSITRQGKSQLELQQLKQFERLEQEVSRPIDHDLANWTPAQPLAPGRTGGLGPSDRQLLLFYLEQCEANLTTLTNAVDAFFTAVATNQPPKIFVAHSKFVILSAHKLVFIGDTLSRQAKAADVRSQVTHYSNLLCDLLRGIVATTKAAALQYPSPSAAQDMVERVKELGHSTQQFRRVLGQLAAA
Consider B1, for which the binding result in test [1] and in test [2] was “binds” in each case.

B2: LATS1 kinase (large tumor suppressor kinase 1), O95835 1-1130 (protein)
chain: MKRSEKPEGYRQMRPKTFPASNYTVSSRQMLQEIRESLRNLSKPSDAAKAEHNMSKMSTEDPRQVRNPPKFGTHHKALQEIRNSLLPFANETNSSRSTSEVNPQMLQDLQAAGFDEDMVIQALQKTNNRSIEAAIEFISKMSYQDPRREQMAAAAARPINASMKPGNVQQSVNRKQSWKGSKESLVPQRHGPPLGESVAYHSESPNSQTDVGRPLSGSGISAFVQAHPSNGQRVNPPPPPQVRSVTPPPPPRGQTPPPRGTTPPPPSWEPNSQTKRYSGNMEYVISRISPVPPGAWQEGYPPPPLNTSPMNPPNQGQRGISSVPVGRQPIIMQSSSKFNFPSGRPGMQNGTGQTDFMIHQNVVPAGTVNRQPPPPYPLTAANGQSPSALQTGGSAAPSSYTNGSIPQSMMVPNRNSHNMELYNISVPGLQTNWPQSSSAPAQSSPSSGHEIPTWQPNIPVRSNSFNNPLGNRASHSANSQPSATTVTAITPAPIQQPVKSMRVLKPELQTALAPTHPSWIPQPIQTVQPSPFPEGTASNVTVMPPVAEAPNYQGPPPPYPKHLLHQNPSVPPYESISKPSKEDQPSLPKEDESEKSYENVDSGDKEKKQITTSPITVRKNKKDEERRESRIQSYSPQAFKFFMEQHVENVLKSHQQRLHRKKQLENEMMRVGLSQDAQDQMRKMLCQKESNYIRLKRAKMDKSMFVKIKTLGIGAFGEVCLARKVDTKALYATKTLRKKDVLLRNQVAHVKAERDILAEADNEWVVRLYYSFQDKDNLYFVMDYIPGGDMMSLLIRMGIFPESLARFYIAELTCAVESVHKMGFIHRDIKPDNILIDRDGHIKLTDFGLCTGFRWTHDSKYYQSGDHPRQDSMDFSNEWGDPSSCRCGDRLKPLERRAARQHQRCLAHSLVGTPNYIAPEVLLRTGYTQLCDWWSVGVILFEMLVGQPPFLAQTPLETQMKVINWQTSLHIPPQAKLSPEASDLIIKLCRGPEDRLGKNGADEIKAHPFFKTIDFSSDLRQQSASYIPKITHPTDTSNFDPVDPDKLWSDDNEEENVNDTLNGWYKNGKHPEHAFYEFTFRRFFDDNGYPYNYPKPIEYEYINSQGSEQQSDEDDQNTGSEIKNRDLVYV
As for B2, in test [3], the binding entry is “binds”.

B3: angiomotin-like 1 (AMOTL1) (protein, UniProt Q8IY63 1-956)
chain: MWRAKLRRGTCEPAVKGSPSACYSPSSPVQVLEDSTYFSPDFQLYSGRHETSALTVEATSSIREKVVEDPLCNFHSPNFLRISEVEMRGSEDAAAGTVLQRLIQEQLRYGTPTENMNLLAIQHQATGSAGPAHPTNNFSSTENLTQEDPQMVYQSARQEPQGQEHQVDNTVMEKQVRSTQPQQNNEELPTYEEAKAQSQFFRGQQQQQQQQGAVGHGYYMAGGTSQKSRTEGRPTVNRANSGQAHKDEALKELKQGHVRSLSERIMQLSLERNGAKQHLPGSGNGKGFKVGGGPSPAQPAGKVLDPRGPPPEYPFKTKQMMSPVSKTQEHGLFYGDQHPGMLHEMVKPYPAPQPVRTDVAVLRYQPPPEYGVTSRPCQLPFPSTMQQHSPMSSQTSSASGPLHSVSLPLPLPMALGAPQPPPAASPSQQLGPDAFAIVERAQQMVEILTEENRVLHQELQGYYDNADKLHKFEKELQRISEAYESLVKSTTKRESLDKAMRNKLEGEIRRLHDFNRDLRDRLETANRQLSSREYEGHEDKAAEGHYASQNKEFLKEKEKLEMELAAVRTASEDHRRHIEILDQALSNAQARVIKLEEELREKQAYVEKVEKLQQALTQLQSACEKREQMERRLRTWLERELDALRTQQKHGNGQPANMPEYNAPALLELVREKEERILALEADMTKWEQKYLEESTIRHFAMNAAATAAAERDTTIINHSRNGSYGESSLEAHIWQEEEEVVQANRRCQDMEYTIKNLHAKIIEKDAMIKVLQQRSRKDAGKTDSSSLRPARSVPSIAAATGTHSRQTSLTSSQLAEEKKEEKTWKGSIGLLLGKEHHEHASAPLLPPPPTSALSSIASTTAASSAHAKTGSKDSSTQTDKSAELFWPSMASLPSRGRLSTTPAHSPVLKHPAAKGTAEKLENSPGHGKSPDHRGRVSSLLHKPEFPDGEMMEVLI
As to B3, the binding entry in test [1] and in test [2] was “binds” each time.
